Some of these results come from one statement about several compounds together.
Target: T1, recombinant purified intestinal CES2 (Homo sapiens, UniProt O00748)
T1 construct: purchased Sigma Aldrich E0412
T1 sequence (O00748 27-559): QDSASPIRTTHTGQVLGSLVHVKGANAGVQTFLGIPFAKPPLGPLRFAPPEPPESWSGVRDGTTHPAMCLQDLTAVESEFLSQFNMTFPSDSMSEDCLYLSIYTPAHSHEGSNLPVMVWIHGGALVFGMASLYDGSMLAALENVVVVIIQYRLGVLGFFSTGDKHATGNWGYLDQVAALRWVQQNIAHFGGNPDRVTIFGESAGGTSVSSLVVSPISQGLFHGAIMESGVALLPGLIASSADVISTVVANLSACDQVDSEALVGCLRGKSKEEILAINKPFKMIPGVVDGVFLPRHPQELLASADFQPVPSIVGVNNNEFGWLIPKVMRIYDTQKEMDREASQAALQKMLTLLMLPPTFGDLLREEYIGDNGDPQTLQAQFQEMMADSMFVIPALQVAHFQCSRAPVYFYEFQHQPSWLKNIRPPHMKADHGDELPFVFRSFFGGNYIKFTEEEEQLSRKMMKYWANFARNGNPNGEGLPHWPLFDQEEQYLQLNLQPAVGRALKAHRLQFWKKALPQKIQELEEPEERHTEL
Experiment: CES2 enzyme assay (4-nitrophenyl acetate hydrolysis)
Assay type: biochemical

O=C(/C=C/c1ccccc1)c1ccc(O)cc1O [2′,4′ dihydroxychalcone, 2′,4′-dihydroxychalcone]
fold selectivity for CES2 over CES1: greater than 100 fold

Source: patent US10314811B2, “Compositions and methods for selectively inhibiting intestinal carboxylesterase 2 enzyme activity” (The Methodist Hospital, priority 2015, dated 2019)
